Source: paper PMC8275679
These are yes or no findings as the source states them, for the method shown. Binding seen in cells or lysates may run through a third protein. Some entries that bind do so weakly or less than the wild type.

Sequences of proteins named here, by UniProt entry; tags and fusion partners are left off.
UniProt Q9EPK5: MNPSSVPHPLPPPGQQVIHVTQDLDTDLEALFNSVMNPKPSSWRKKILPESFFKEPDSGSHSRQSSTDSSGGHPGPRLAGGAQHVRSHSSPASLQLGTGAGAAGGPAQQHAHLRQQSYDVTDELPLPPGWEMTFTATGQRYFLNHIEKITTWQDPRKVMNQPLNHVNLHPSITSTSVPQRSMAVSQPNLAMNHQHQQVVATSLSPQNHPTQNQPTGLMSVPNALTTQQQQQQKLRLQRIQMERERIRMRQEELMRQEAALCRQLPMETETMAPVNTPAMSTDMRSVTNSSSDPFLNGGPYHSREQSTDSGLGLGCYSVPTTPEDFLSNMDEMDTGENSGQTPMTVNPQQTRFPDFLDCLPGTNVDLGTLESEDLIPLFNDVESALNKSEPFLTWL

Target: Transcriptional coactivator with PDZ-binding motif (TAZ), Flag-tagged (UniProt Q9EPK5)
Assay: co-IP; lysate of transduced BMMs in NP40 lysis buffer, 500 µg protein, precleared with Protein A- or Protein G-agarose, anti-Flag M2 agarose beads overnight at 4 °C, western blot

B1: TGF-β activated kinase 1 (TAK1) (protein, UniProt Q62073 1-579)
chain: MSTASAASSSSSSSASEMIEAPSQVLNFEEIDYKEIEVEEVVGRGAFGVVCKAKWRAKDVAIKQIESESERKAFIVELRQLSRVNHPNIVKLYGACLNPVCLVMEYAEGGSLYNVLHGAEPLPYYTAAHAMSWCLQCSQGVAYLHSMQPKALIHRDLKPPNLLLVAGGTVLKICDFGTACDIQTHMTNNKGSAAWMAPEVFEGSNYSEKCDVFSWGIILWEVITRRKPFDEIGGPAFRIMWAVHNGTRPPLIKNLPKPIESLMTRCWSKDPSQRPSMEEIVKIMTHLMRYFPGADEPLQYPCQYSDEGQSNSATSTGSFMDIASTNTSNKSDTNMEQVPATNDTIKRLESKLLKNQAKQQSESGRLSLGASRGSSVESLPPTSEGKRMSADMSEIEARIVATAGNGQPRRRSIQDLTVTGTEPGQVSSRSSSPSVRMITTSGPTSEKPARSHPWTPDDSTDTNGSDNSIPMAYLTLDHQLQPLAPCPNSKESMAVFEQHCKMAQEYMKVQTEIALLLQRKQELVAELDQDEKDQQNTSRLVQEHKKLLDENKSLSTYYQQCKKQLEVIRSQQQKRQGTS
binding: binds
